# Data: PubChem BioAssay AID662 (National Center for Advancing Translational Sciences (NCATS), 2007)
# This is one part of the list. Further columns of the screen follow, without active or inactive calls. The list favours compounds with an active or inconclusive main result. The note in brackets gives the kind of curve behind each potency; many fits are weak.
# Assay: Cell signaling CRE-BLA (Fsk stim)
# Details: CHO CRE-bla reporter (cAMP response element driving beta-lactamase), forskolin EC10, beta-lactamase ratio; measured here: 460 nm blue channel
# Method in brief: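 CRE-bla CHO reporter cells treated with compound titration plus EC10 NKH 477 (water-soluble forskolin), incubated 3 h at 37 °C; CCF4 loading 2 h at room temperature, 460/530 nm emission ratio read, AC50 values derived for positive or negative modulators.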
row,SMILES,AC50
1,O=C(CN1CCN(c2ccccn2)CC1)Nc1ccc(Cl)c(C(F)(F)F)c1,"25.1 µM [falling, single point]"
2,COc1cccc(C(=O)CSc2nc3ccccc3n2CC(=O)N2CCOCC2)c1,"10 µM [rising, partial curve]"
3,COc1cccc(Cn2c(=O)c(C)nc3cnc(N4CCOCC4)nc32)c1,"3.16 µM [rising, full curve]"
4,CCOc1ccc(-c2cc(CCCC(=O)NCCCOC)no2)cc1,"0.316 µM [falling, partial curve]"
5,COc1ccc(NC(C)=O)c2nc(C)c(C)nc12,"12.6 µM [rising, single point]"
6,Cc1cccc(CNc2ncnc3ccc(-c4ccccc4C#N)cc23)c1,"3.16 µM [rising, full curve, poor fit]"
7,CC(=O)Nc1coc2ccc(Br)cc12,"31.6 µM [falling, partial curve]"
8,CSc1ccc(-c2c(C#N)c(N)nc3c2CCCC3)cc1,"7.94 µM [falling, partial curve]"
9,CCN(CC)c1nc(Nc2ccc(Cl)cc2)nc(OCC#N)n1,"5.01 µM [rising, full curve]"
10,CN(C)c1cccc(-c2nnc(SCCCC#N)o2)c1,"0.631 µM [falling, full curve, poor fit]"
11,COc1ccc(C(=O)Oc2c(C)occc2=O)cc1OC,"10 µM [rising, partial curve]"
12,CCCCC(CC)Cn1c(N)c(C#N)c2nc3ccccc3nc21 (stereo not given),"12.6 µM [rising, partial curve]"
13,CCN1C=C(C(=O)OC)C(c2cccc(C)c2)C(C(=O)OC)=C1,"10 µM [rising, partial curve]"
14,CCOC(=O)COc1ccc2c(c1)C(=O)CC(C)(C)O2,"25.1 µM [rising, single point]"
15,CC/C(=C(\c1ccccc1)c1ccc(OCCN(C)C)cc1)c1ccccc1,"31.6 µM [falling, single point]"
16,O=C(OCCNC(=O)c1ccc2ccccc2n1)c1cccnc1,"12.6 µM [rising, partial curve]"
17,CCc1oc2ccccc2c1C(=O)c1cc(Br)c(O)c(Br)c1,"5.01 µM [rising, single point]"
18,COc1nc(-c2ccccc2)ccc1-c1noc(-c2ccccc2)n1,"3.98 µM [rising, partial curve]"
19,Cc1cccc(C)c1OCc1nnc2c3cnn(C)c3ncn12,"12.6 µM [rising, single point]"
20,O=C(NCC1CCCO1)C1CCC(N2C(=O)c3ccccc3C2=O)CC1 (stereo not given),"0.794 µM [rising, full curve]"
21,CC(C)(C)c1ccc(OCC(=O)NCc2ccco2)c(Br)c1,"10 µM [falling, partial curve]"
22,COc1ccc(Cl)cc1NC(=O)CSc1nncn1-c1cccnc1,"6.31 µM [rising, partial curve]"
23,C=C(C)COc1ccc(-c2n[nH]c(C)c2Oc2ccccc2OC)c(O)c1,"10 µM [falling, partial curve]"

# Part of the list above in order of heavy-atom count, high to low.
row,SMILES,AC50
23,C=C(C)COc1ccc(-c2n[nH]c(C)c2Oc2ccccc2OC)c(O)c1,"10 µM [falling, partial curve]"
13,CCN1C=C(C(=O)OC)C(c2cccc(C)c2)C(C(=O)OC)=C1,"10 µM [rising, partial curve]"
17,CCc1oc2ccccc2c1C(=O)c1cc(Br)c(O)c(Br)c1,"5.01 µM [rising, single point]"

# (list continues)

row,SMILES,AC50
1,Cc1ccc(C)c(N2CCN(C(=O)c3ccc(CS(=O)(=O)c4ccccc4C)o3)CC2)c1,"10 µM [falling, single point]"
2,Cc1csc2nc(CSc3nc4ccccc4o3)c(Br)n12,"2.51 µM [rising, full curve, poor fit]"
3,CCS(=O)(=O)N1CCC(C(=O)NCc2ccccc2OC)CC1,"7.94 µM [falling, partial curve, poor fit]"
4,CCn1c(-c2cc(OC)c(OC)c(OC)c2)n[nH]c1=S,"12.6 µM [rising, single point]"
5,CC(C)COc1ccc(C(=O)OCCN2CCOCC2)cc1,"3.16 µM [falling, single point]"
6,Cc1cc(N2CCCCC2)nc(SCc2ccc(C#N)cc2)n1,"10 µM [rising, partial curve]"
7,COC(=O)c1nnn(-c2nonc2N)c1CSc1ccccn1,"3.98 µM [rising, partial curve]"
8,COC(=O)c1c(N)c(C#N)c(C)n1-c1ccccc1,"20 µM [rising, single point]"
9,O=C(Nc1ccccc1-c1ccccc1)c1cnccn1,"12.6 µM [rising, partial curve]"
10,COC(=O)c1sccc1NC(=O)c1ccncc1,"6.31 µM [rising, partial curve]"
11,Nn1cnnc1SCC(=O)Nc1ccc(C2CCCCC2)cc1,"15.8 µM [falling, single point]"
12,O=C(CCS(=O)(=O)c1cccc2nonc12)N1CCN(c2ccc(F)cc2)CC1,"0.00398 µM [falling, full curve, poor fit]"
13,Cc1cccn2c(=O)c3cc(C#N)c(=NC(=O)c4ccncc4)n(CCCOC(C)C)c3nc12,"12.6 µM [rising, partial curve]"
14,CCCCCNC(=O)c1ccc2c(=O)[nH]c3c(C(=O)NCC4CCCO4)sc(=S)n3c2c1 (stereo not given),"0.00398 µM [falling, full curve, poor fit]"
15,C/C(Cl)=C/Cn1c(SC(C)C)nc2c1c(=O)[nH]c(=O)n2C,"5.01 µM [rising, partial curve]"
16,Oc1c(C(c2ccccc2)N2CCN(Cc3ccccc3)CC2)sc2ncnn12 (stereo not given),"15.8 µM [falling, partial curve]"
17,Cc1cccn2c(=O)c3cc(C(=O)N4c5ccccc5CC4C)n(C)c3nc12 (stereo not given),"0.794 µM [rising, full curve]"
18,CC(C)COc1ccc(-c2nnc(-c3ccco3)o2)cc1,"12.6 µM [rising, partial curve]"
19,O=C(Cn1cnc2c(nnn2Cc2ccc(F)cc2)c1=O)NCC1CCCO1 (stereo not given),"0.0126 µM [falling, full curve, poor fit]"
20,CC(C)(C)c1csc(NC(=O)c2ccc(Cl)s2)n1,"25.1 µM [falling, single point]"
21,CCCCn1c(=O)[nH]c(=O)c2c1nc(COC(=O)c1c(C)noc1C)n2CCC,"10 µM [rising, partial curve]"
22,N#CC(C(=O)NCc1ccco1)c1nc2ccccc2nc1N1CCOCC1 (stereo not given),"12.6 µM [rising, partial curve]"
